Laboratory results published in paper PMC10076289.
Results are given in words; binding and its absence hold for the method and conditions named. Binding seen in cells or lysates may run through a third protein. Here binding means that the protein was enriched with, or labelled near, the bait; the list need not be complete.

Sequences of proteins named here, by UniProt entry; tags and fusion partners are left off. A change or cut given only in a name is not applied to a line headed by its entry.
UniProt Q02078: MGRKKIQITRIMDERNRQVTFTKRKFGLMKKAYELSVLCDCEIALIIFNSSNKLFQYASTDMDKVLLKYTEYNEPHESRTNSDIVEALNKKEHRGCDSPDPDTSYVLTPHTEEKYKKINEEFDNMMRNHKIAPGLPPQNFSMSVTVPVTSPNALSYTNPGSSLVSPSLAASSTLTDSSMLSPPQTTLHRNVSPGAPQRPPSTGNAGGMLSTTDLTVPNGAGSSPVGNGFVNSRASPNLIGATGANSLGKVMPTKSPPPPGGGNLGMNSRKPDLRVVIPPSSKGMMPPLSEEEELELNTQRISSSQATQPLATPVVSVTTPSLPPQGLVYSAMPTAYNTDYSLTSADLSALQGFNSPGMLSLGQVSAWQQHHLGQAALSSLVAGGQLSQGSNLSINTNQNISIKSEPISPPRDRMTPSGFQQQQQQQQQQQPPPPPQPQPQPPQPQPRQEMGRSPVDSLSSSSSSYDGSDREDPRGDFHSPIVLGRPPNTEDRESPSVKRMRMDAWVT
UniProt Q641X8: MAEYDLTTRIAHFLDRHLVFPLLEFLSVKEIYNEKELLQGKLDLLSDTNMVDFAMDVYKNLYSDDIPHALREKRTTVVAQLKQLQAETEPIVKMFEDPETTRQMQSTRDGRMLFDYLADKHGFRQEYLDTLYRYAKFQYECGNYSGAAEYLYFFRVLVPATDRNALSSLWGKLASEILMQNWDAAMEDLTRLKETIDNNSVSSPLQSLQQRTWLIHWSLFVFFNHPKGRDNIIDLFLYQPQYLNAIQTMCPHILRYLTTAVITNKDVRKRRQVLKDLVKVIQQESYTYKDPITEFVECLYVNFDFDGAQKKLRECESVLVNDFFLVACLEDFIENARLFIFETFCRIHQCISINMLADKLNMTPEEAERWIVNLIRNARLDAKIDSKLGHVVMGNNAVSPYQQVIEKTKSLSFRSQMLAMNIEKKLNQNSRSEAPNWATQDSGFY
UniProt Q6P9U8: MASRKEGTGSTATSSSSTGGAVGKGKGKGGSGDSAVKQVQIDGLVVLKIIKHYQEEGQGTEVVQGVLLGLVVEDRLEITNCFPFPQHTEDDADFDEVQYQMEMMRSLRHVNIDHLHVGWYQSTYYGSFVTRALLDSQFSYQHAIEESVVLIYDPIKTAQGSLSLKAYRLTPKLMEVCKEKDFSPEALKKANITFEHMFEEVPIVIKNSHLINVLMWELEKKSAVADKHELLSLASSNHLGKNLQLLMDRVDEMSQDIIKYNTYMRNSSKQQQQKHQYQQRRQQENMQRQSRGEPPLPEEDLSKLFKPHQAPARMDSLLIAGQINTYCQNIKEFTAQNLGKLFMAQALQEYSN
UniProt B0BNA7: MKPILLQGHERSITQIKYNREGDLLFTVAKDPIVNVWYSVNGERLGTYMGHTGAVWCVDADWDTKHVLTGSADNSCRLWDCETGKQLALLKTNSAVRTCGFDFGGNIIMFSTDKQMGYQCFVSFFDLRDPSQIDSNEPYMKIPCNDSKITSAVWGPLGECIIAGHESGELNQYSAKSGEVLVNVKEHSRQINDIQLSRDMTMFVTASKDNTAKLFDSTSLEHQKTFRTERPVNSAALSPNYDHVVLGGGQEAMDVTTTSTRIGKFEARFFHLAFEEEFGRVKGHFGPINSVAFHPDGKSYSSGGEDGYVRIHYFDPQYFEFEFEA
UniProt O35763: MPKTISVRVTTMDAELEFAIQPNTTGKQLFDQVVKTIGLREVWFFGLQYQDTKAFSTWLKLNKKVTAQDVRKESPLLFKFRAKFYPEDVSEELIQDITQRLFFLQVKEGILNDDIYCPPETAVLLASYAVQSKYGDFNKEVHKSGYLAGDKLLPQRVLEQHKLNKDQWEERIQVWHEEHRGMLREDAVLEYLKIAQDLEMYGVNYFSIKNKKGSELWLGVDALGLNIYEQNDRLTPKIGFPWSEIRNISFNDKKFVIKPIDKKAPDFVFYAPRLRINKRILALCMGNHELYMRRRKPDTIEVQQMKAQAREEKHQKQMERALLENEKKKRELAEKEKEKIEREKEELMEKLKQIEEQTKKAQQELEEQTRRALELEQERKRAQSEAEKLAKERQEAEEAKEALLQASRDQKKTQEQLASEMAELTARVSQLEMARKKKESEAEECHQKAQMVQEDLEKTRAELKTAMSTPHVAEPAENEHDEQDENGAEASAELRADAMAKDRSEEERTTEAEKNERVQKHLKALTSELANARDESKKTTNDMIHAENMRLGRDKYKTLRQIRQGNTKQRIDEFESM
UniProt P18421: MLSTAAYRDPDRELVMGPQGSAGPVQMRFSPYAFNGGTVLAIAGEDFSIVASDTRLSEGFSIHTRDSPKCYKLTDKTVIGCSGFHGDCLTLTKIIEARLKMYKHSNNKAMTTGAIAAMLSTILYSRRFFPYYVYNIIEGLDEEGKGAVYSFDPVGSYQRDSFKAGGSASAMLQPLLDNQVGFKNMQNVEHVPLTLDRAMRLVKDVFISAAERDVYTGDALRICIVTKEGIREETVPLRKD
UniProt P52631: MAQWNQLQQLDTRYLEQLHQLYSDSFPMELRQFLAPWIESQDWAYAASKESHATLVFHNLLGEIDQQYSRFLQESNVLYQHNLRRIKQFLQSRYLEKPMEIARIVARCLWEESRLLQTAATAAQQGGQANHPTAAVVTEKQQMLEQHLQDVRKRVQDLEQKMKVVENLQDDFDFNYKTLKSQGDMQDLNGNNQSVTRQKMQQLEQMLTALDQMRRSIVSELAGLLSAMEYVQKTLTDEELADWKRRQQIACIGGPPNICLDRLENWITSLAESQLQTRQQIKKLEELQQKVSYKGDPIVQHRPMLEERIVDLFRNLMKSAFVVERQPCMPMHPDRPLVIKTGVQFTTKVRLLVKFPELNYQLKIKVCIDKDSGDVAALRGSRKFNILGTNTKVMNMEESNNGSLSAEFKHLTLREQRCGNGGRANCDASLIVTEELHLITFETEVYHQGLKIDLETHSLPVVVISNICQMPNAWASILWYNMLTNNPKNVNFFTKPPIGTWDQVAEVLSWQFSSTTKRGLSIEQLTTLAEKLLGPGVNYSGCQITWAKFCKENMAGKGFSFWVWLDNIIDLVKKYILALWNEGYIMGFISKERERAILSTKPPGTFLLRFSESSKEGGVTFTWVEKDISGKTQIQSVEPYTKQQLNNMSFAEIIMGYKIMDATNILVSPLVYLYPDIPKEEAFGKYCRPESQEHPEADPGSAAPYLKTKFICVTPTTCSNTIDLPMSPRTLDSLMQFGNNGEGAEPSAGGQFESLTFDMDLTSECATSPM
UniProt A1L108: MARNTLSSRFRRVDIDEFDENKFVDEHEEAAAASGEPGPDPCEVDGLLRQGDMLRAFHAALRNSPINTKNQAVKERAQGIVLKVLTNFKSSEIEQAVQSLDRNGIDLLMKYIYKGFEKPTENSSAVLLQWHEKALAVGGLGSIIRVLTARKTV
UniProt P31977: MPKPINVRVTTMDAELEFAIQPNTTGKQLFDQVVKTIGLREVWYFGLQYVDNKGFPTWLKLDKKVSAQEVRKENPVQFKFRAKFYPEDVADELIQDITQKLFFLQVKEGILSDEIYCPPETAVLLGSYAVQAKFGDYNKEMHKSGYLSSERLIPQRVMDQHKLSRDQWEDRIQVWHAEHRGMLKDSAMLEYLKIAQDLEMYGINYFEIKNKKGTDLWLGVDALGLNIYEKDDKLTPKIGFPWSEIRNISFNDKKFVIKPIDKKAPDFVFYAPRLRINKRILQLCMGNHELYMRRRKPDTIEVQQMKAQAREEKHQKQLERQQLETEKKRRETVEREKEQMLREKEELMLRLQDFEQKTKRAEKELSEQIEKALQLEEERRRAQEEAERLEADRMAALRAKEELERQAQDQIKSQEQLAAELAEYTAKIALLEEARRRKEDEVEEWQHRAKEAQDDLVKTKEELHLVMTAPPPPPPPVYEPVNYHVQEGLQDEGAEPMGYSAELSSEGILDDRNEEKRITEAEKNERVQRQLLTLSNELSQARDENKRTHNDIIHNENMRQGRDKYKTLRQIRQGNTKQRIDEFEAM
UniProt P62138: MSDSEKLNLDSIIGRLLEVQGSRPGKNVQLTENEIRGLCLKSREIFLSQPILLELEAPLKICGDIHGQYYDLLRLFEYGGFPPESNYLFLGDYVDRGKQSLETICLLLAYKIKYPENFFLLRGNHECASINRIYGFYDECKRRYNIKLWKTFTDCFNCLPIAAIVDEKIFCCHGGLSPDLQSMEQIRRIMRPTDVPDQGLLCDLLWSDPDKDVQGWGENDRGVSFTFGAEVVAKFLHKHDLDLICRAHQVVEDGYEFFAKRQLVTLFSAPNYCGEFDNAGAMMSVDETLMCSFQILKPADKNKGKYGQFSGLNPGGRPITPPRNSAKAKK
UniProt P18420: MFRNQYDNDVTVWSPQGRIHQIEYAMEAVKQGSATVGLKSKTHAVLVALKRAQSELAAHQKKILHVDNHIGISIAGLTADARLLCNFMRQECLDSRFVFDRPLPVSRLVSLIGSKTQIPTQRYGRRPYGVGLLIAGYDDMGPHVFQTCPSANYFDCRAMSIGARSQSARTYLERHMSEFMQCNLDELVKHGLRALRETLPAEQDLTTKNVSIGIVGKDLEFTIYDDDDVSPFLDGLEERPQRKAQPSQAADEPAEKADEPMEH
UniProt P48500: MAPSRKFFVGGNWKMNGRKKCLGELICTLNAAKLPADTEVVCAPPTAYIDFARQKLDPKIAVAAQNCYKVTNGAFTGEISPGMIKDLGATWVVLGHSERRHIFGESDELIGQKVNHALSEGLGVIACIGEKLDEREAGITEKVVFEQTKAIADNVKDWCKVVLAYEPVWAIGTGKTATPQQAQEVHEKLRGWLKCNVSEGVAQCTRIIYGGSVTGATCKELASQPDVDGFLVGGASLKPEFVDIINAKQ

The substances below were run against 3xFlag-MEF2A (UniProt Q02078) (assay: affinity purification with mass spectrometry; 3xFlag-MEF2A expressed in primary neonatal rat cardiomyocytes, captured on anti-Flag magnetic beads, eluted with 0.2% TFA in 20% acetonitrile (pH 1.9), trypsin digest, iTRAQ labelling, LC-MS/MS; 3 Flag-MEF2A and 3 non-transfected control IPs).

Row | Substance | binding
1 | EIF3E (from UniProt Q641X8 1-445) | binds
2 | EIF3H (from UniProt Q6P9U8 1-352) | binds
3 | EIF3I (from UniProt B0BNA7 1-325) | binds
4 | Moesin (from UniProt O35763 1-577) | binds
5 | PSMB1 (from UniProt P18421) | binds
6 | STAT3 (from UniProt P52631 1-770) | binds
7 | actin-related protein 2/3 complex subunit 5-like protein (from UniProt A1L108 1-153) | binds

The next lines start with the values.

Row | binding | Substance
8 | binds | Ezrin (from UniProt P31977 1-586)
9 | binds | PKM (from UniProt P11980-2)
10 | binds | PP1α (from UniProt P62138 1-330)
11 | binds | PSMA1 (from UniProt P18420 1-263)
12 | binds | RBPMS (from UniProt A0A8I6G705 1-197)
13 | binds | TPI1 (from UniProt P48500 1-249)
